Assay results from patent US20120156203A1.
Numbering of substitutions follows the chain as printed. These are yes or no findings as the source states them, for the method shown. Some results given as binding are weak or reduced against the parent protein; the word gives no strength.

By UniProt entry, the sequences of proteins in these tests, tags left out. Residues count along the entry.
UniProt P35225, residues 35-146: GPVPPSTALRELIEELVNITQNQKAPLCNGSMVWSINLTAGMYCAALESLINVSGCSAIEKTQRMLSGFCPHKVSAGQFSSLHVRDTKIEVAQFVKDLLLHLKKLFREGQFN

B1: humanized Fab RL-36 (Fab, V domains shown)
VH: QVTLRESGPALVKPTQTLTLTCTGSGFSLSAYSVNWIRQPPGKALEWLAMIWGDGKIVYNSALKSRLTISKDTSKNQVVLTMTNMDPVDTATYYCAVDGYYPYAMDNWGQGSLVTVSS
VL: DIVMTQSPDSLSVSLGERATINCRASKSVDSYGNSFMHWYQQKPGQPPKLLIYLASNLESGVPDRFSGSGSGTDFTLTISSLQAEDVAVYYCQQNNEDPRTFGGGTKVEIK
B2: humanized Fab RL-19 (Fab, V domains shown)
VH: B1 VH with G24S, V97L
VL: B1 VL

Target: IL-13 (antigen captured on the plate in the Fab ELISAs of Examples 9 and 10) (UniProt P35225)
Test: functional ELISA of Fabs

| Binder | binding |
| --- | --- |
| B1 | binds |
| B2 | binds |
